PubChem BioAssay AID1159578 | Peter MacCallum Cancer Centre | 2015

Purpose: 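Genome-wide hunt for genes controlling movement of lymphatic endothelial cells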 (primary screen)
Cells: human lymphatic endothelial cells
Reagents: siRNA pool against human genes, 40 nM
Timing: 48 h after transfection
Detection: 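Cells stained with dye and imaged after a scratch; covered wound area and nuclei counted, duplicates averaged, migration set against mock wells and turned into a robust z-score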
Reading the numbers: migration robust z-score: higher = faster migration into the scratch; nuclei per well: higher = more cells in the well
Active means: 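Migration changed when robust z exceeds 2 or falls below -2 and mean nuclei number is at least 3300; otherwise not called changed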
Calls: active = migration changed; inactive = no migration change, or too few cells
Here is a random part of about 18,000 reagents tested. About 1,030 of all reagents (5.7%) count as active. 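Inactive calls also include pools with fewer than 3300 nuclei, whose migration was not assessed.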 Raw values vary from plate to plate and are shown uncorrected. A number with no mark means an inactive call. Further read-outs or replicates are left out here. Reagent sequences are not shown.

After knock-down of MSH5 (mutS homolog 5), the record shows migration robust z-score 0.36; nuclei per well, duplicate mean 5534.
LINC00336 (long independently transcribed non-coding RNA 336) scored migration robust z-score -0.52; nuclei per well, duplicate mean 5733.
Depletion of TDRD6 (tudor domain containing 6) came out at: migration robust z-score -1.05; nuclei per well, duplicate mean 5902.
After knock-down of DEPDC4 (DEP domain containing 4) the results were migration robust z-score 0.46; nuclei per well, duplicate mean 5198.
Depletion of SAPCD2 (suppressor APC domain containing 2) came out at: migration robust z-score -1.6; nuclei per well, duplicate mean 6235.
Knock-down of C5AR2 (complement C5a receptor 2) resulted in: migration robust z-score -1.06; nuclei per well, duplicate mean 4481.
After knock-down of TNRC18 (trinucleotide repeat containing 18), the record shows migration robust z-score -0.2; nuclei per well, duplicate mean 6252.
Against SLC29A3 the deposit lists migration robust z-score -2.1 (active); nuclei per well, duplicate mean 4356.
MRPL28 (mitochondrial ribosomal protein L28) showed migration robust z-score 2.12 (active); nuclei per well, duplicate mean 5464.
Knock-down of TSSK2 (testis specific serine kinase 2) came out at: migration robust z-score -4.33; nuclei per well, duplicate mean 3052.
IFNA6 (interferon alpha 6) gave migration robust z-score -0.76; nuclei per well, duplicate mean 5360.
Against EXTL1 (exostosin like glycosyltransferase 1), the values are migration robust z-score -0.21; nuclei per well, duplicate mean 6748.

A few values from the list.
SLC29A3, migration robust z-score = -2.1 (active)
For “migration robust z-score”, MSH5 (mutS homolog 5) reads 0.36

The listing continues.
FRMD8 (FERM domain containing 8) showed migration robust z-score 0.38; nuclei per well, duplicate mean 6336.
SPTSSB (serine palmitoyltransferase small subunit B) gave migration robust z-score 0.16; nuclei per well, duplicate mean 5964.
Depletion of AJM1 (apical junction component 1 homolog) came out at: migration robust z-score -0.72; nuclei per well, duplicate mean 5842.
Against LCN9 (lipocalin 9) the deposit lists migration robust z-score -0.78; nuclei per well, duplicate mean 5806.
Against IGIP (IgA inducing protein) the deposit lists migration robust z-score -2.02 (active); nuclei per well, duplicate mean 5767.
Against GPR37 (G protein-coupled receptor 37), the values are migration robust z-score 1.29; nuclei per well, duplicate mean 6738.
Depletion of MIS18BP1 (MIS18 binding protein 1) resulted in: migration robust z-score 0.86; nuclei per well, duplicate mean 6734.
With knock-down of CAB39L (calcium binding protein 39 like) the results were migration robust z-score 1.48; nuclei per well, duplicate mean 4734.
Depletion of CBR4 (carbonyl reductase 4) came out at: migration robust z-score 0.21; nuclei per well, duplicate mean 6298.
